No constants are given. Whether binding was seen depends on the method and setting. Some entries that bind do so weakly or less than the wild type.
Molecular target: T1, recombinant human nicotinate phosphoribosyltransferase (rNAPRT) (human) (UniProt Q6XQN6)
T1 sequence: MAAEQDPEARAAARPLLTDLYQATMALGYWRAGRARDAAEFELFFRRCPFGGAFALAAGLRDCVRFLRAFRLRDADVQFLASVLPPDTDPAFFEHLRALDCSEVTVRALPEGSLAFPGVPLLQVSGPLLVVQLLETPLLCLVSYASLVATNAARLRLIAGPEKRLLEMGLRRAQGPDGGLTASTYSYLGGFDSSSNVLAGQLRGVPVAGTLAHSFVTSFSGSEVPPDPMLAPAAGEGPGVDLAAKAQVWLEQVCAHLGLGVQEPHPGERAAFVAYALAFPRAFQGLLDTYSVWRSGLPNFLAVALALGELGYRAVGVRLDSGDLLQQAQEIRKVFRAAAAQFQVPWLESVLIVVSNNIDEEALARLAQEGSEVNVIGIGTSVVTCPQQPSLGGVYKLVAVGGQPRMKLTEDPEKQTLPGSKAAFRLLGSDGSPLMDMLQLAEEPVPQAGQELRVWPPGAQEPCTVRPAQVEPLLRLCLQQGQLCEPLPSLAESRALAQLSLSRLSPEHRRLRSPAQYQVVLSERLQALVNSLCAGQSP
Test: SPR; anti-NAPRT monoclonal antibody (Proteintech) immobilised on a CMD 2D chip (MP-SPR Navi 210A); TLR4 (1 uM), NAPRT (100 nM) and pre-mixed TLR4/NAPRT (1 uM/100 nM) injected for 210 s at 30 ul/min; 10 mM HEPES, 0.05% Tween, pH 7.5; 25 °C; both purified

Protein sequences, listed by entry. Tags and fused reporters are not part of them. Residues count along the entry.
UniProt O00206, residues 24-631: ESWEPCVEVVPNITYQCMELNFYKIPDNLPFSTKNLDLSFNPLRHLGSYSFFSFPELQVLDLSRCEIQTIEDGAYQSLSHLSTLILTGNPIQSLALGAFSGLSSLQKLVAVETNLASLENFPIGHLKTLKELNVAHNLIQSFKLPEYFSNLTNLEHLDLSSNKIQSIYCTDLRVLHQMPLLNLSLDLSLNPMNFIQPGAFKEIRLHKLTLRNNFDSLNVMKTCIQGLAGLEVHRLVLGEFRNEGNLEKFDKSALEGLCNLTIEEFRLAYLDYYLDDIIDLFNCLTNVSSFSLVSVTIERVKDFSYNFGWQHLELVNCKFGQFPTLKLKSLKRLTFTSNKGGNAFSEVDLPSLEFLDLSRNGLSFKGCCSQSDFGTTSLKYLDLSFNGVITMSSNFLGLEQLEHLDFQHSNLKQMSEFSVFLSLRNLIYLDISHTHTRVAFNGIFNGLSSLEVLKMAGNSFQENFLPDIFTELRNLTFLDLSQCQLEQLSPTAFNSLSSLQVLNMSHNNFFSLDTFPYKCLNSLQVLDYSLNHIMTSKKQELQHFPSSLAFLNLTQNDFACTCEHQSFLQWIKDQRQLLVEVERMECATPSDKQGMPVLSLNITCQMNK

binding: binds
Substance: recombinant extracellular domain of TLR4 (rTLR4) (from UniProt O00206 24-631) (domain or fragment)

Reference: article PMC6739309
